No constants are given. Whether binding was seen depends on the method and setting. In cells and extracts the contact can be indirect. Binding calls can cover weak binding; strength is not graded here.
Target: ectodomain of the S protein of PEDV (GeneBank no. HC070225-S) (porcine epidemic diarrhea virus (PEDV))
Test: pull-down (100 kDa MWCO spin column, SDS-PAGE) and SEC co-elution with anti-V5 western blotting

B1: recombinant scFv (scFv)
scFv: NIVLTQSPKSMSMSVGERVTLSCKASENVGTYVSWYQQKPKQSPKLLIYGTFNRYTGVPDRFTGSGSATDFTLTISSVQAEDLADYHCGQSYNYPFTFGSGTKLEIKGGGGSGGGGSGGGGSQVQLQQSGAELARPGTSVKMSCKASGYTFTNYMMHWIKQRPGQGLEWIGYINPSTGYTNYNQKFKDKATLTADKSSSTAYVQLNILTSEDSAVYYCATSTLITGDYWGQGTTLTVSSKGQDNSAG
binding: binds

— patent US20230037864A1
